{"sequences": {"note": "The chains behind the UniProt entries cited, without tags or fusion partners.", "MORF4L1, Q9UBU8, UniProt Q9UBU8, whole entry": "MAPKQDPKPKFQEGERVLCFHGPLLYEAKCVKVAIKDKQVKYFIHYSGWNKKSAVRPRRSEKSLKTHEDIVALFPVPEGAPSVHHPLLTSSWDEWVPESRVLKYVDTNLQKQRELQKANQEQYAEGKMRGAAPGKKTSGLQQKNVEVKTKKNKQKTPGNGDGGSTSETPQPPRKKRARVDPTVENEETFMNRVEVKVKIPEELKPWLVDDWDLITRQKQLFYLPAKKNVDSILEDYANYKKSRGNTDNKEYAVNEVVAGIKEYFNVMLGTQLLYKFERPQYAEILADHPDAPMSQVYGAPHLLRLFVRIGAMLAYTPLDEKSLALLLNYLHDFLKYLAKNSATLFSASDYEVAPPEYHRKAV", "MORF4L2, Q15014, UniProt Q15014, whole entry": "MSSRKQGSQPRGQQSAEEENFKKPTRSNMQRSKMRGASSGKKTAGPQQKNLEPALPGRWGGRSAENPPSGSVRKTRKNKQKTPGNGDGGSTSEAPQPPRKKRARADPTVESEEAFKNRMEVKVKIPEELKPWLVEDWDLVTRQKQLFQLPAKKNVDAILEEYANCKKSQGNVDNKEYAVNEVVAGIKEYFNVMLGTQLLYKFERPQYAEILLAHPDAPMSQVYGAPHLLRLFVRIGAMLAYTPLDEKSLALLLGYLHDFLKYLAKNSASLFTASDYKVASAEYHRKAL", "MPG, P29372, UniProt P29372, whole entry": "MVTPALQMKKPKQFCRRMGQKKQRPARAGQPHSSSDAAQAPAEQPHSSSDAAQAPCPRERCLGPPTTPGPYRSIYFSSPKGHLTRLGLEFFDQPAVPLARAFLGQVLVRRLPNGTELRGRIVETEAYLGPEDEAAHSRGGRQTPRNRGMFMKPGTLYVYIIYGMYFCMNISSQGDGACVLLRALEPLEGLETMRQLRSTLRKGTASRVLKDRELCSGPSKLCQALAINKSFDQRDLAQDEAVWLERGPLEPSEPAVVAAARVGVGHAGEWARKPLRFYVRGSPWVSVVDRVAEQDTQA", "PIN1, Q13526, UniProt Q13526, whole entry": "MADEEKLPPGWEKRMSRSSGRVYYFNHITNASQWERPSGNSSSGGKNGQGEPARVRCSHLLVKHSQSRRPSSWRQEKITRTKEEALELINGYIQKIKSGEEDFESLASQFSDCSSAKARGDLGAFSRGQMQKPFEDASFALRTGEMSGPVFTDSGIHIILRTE", "PIN4, Q9Y237, UniProt Q9Y237, whole entry": "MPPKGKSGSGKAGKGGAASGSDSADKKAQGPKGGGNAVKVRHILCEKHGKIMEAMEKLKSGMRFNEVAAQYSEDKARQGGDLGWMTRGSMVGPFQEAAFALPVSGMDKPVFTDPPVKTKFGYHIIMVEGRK", "PLK1, P53350, UniProt P53350, whole entry": "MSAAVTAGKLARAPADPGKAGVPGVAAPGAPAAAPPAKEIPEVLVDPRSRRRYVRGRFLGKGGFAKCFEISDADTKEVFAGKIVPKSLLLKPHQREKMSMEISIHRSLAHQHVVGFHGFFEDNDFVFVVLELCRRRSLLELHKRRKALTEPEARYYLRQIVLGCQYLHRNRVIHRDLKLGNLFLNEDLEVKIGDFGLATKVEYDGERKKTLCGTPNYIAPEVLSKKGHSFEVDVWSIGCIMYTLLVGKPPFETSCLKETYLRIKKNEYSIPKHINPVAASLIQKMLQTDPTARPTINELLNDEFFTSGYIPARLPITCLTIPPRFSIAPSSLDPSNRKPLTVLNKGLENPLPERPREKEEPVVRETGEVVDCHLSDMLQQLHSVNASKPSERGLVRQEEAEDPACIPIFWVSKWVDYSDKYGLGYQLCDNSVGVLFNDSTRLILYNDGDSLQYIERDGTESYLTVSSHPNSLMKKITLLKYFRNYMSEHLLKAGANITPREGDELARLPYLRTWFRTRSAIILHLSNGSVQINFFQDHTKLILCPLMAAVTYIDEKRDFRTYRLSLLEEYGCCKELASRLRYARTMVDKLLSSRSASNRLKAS", "TMA7, Q9Y2S6, UniProt Q9Y2S6, whole entry": "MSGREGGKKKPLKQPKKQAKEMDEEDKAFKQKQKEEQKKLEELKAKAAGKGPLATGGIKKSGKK"}, "source": "the supplement of paper PMC10032668", "assay_in_all_cases": "PRISMA enrichment of interactor (LFQ) in peptide spot vs all other peptide spots (log2 fold change); higher = stronger / more specific binding of the interactor to the peptide", "key": {"GSK3B, P49841": {"target": "GSK3B, P49841", "description": "(§1)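 PRISMA: 221 full-length sORF-encoded peptides (3-15 aa), plus SOS1/GLUT1 control peptides, were spot-synthesized on cellulose membranes in triplicate. Membranes were incubated with HEK293T lysate, and bound proteins were identified by LC-MS/MS with LFQ. Enrichment is the log2 fold change versus all other peptide spots; only significant interactors are listed (cutoff c=6, x0=2.8).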"}, "GTPBP1, O00178": {"target": "GTPBP1, O00178", "description": "as §1"}, "H1FX, Q92522": {"target": "H1FX, Q92522", "description": "as §1"}, "HMGB2, P26583": {"target": "HMGB2, P26583", "description": "as §1"}, "HP1BP3, Q5SSJ5": {"target": "HP1BP3, Q5SSJ5", "description": "as §1"}, "IBA57, Q5T440": {"target": "IBA57, Q5T440", "description": "as §1"}, "ISG20L2, Q9H9L3": {"target": "ISG20L2, Q9H9L3", "description": "as §1"}, "KIFC1, Q9BW19": {"target": "KIFC1, Q9BW19", "description": "as §1"}, "MAP4, P27816": {"target": "MAP4, P27816", "description": "as §1"}, "MAZ, P56270": {"target": "MAZ, P56270", "description": "as §1"}, "MCAT, Q8IVS2": {"target": "MCAT, Q8IVS2", "description": "as §1"}, "MORF4L1, Q9UBU8": {"target": "MORF4L1, Q9UBU8", "description": "as §1"}, "MORF4L2, Q15014": {"target": "MORF4L2, Q15014", "description": "as §1"}, "MPG, P29372": {"target": "MPG, P29372", "description": "as §1"}, "MRRF, Q96E11": {"target": "MRRF, Q96E11", "description": "as §1"}, "NIFK, Q9BYG3": {"target": "NIFK, Q9BYG3", "description": "as §1"}, "NME4, O00746": {"target": "NME4, O00746", "description": "as §1"}, "NTHL1, P78549": {"target": "NTHL1, P78549", "description": "as §1"}, "NUSAP1, Q9BXS6": {"target": "NUSAP1, Q9BXS6", "description": "as §1"}, "PIN1, Q13526": {"target": "PIN1, Q13526", "description": "as §1"}, "PIN4, Q9Y237": {"target": "PIN4, Q9Y237", "description": "as §1"}, "PLK1, P53350": {"target": "PLK1, P53350", "description": "as §1"}, "PPIL2, Q13356": {"target": "PPIL2, Q13356", "description": "as §1"}, "PSRC1, Q6PGN9": {"target": "PSRC1, Q6PGN9", "description": "as §1"}, "RBIS, Q8N0T1": {"target": "RBIS, Q8N0T1", "description": "as §1"}, "RPS19BP1, Q86WX3": {"target": "RPS19BP1, Q86WX3", "description": "as §1"}, "RPUSD3, Q6P087": {"target": "RPUSD3, Q6P087", "description": "as §1"}, "TAX1BP3, O14907": {"target": "TAX1BP3, O14907", "description": "as §1"}, "THYN1, Q9P016": {"target": "THYN1, Q9P016", "description": "as §1"}, "TMA16, Q96EY4": {"target": "TMA16, Q96EY4", "description": "as §1"}, "TMA7, Q9Y2S6": {"target": "TMA7, Q9Y2S6", "description": "as §1"}, "TOMM34, Q15785": {"target": "TOMM34, Q15785", "description": "as §1"}, "TRAF2, Q12933": {"target": "TRAF2, Q12933", "description": "as §1"}, "UTP11, Q9Y3A2": {"target": "UTP11, Q9Y3A2", "description": "as §1"}, "UTP15, Q8TED0": {"target": "UTP15, Q8TED0", "description": "as §1"}, "VRK1, Q99986": {"target": "VRK1, Q99986", "description": "as §1"}, "ZNF146, Q15072": {"target": "ZNF146, Q15072", "description": "as §1"}, "ZNF22, P17026": {"target": "ZNF22, P17026", "description": "as §1"}, "ZNF512, Q96ME7": {"target": "ZNF512, Q96ME7", "description": "as §1"}, "ZNF768, Q9H5H4": {"target": "ZNF768, Q9H5H4", "description": "as §1"}}, "note": "± gives the standard deviation of the averaged measurements. The list shows a part of the results. Only hits are listed; about a third recur on repeated control peptides.", "data": [{"binder": "MQEVWGELGD", "note": "[PDGFD]", "values": [{"measurement": "PRISMA enrichment of interactor (log2)", "setting": "GSK3B, P49841", "value": 5.28}, {"measurement": "PRISMA enrichment of interactor (log2)", "setting": "GTPBP1, O00178", "value": 5.13}, {"measurement": "PRISMA enrichment of interactor (log2)", "setting": "H1FX, Q92522", "value": 5.53}, {"measurement": "PRISMA enrichment of interactor (log2)", "setting": "HMGB2, P26583", "value": 5.12}, {"measurement": "PRISMA enrichment of interactor (log2)", "setting": "HP1BP3, Q5SSJ5", "value": 5.7}, {"measurement": "PRISMA enrichment of interactor (log2)", "setting": "IBA57, Q5T440", "value": 6.6}, {"measurement": "PRISMA enrichment of interactor (log2)", "setting": "ISG20L2, Q9H9L3", "value": 5.01}, {"measurement": "PRISMA enrichment of interactor (log2)", "setting": "KIFC1, Q9BW19", "value": 5.04}, {"measurement": "PRISMA enrichment of interactor (log2)", "setting": "MAP4, P27816", "value": 6.34}, {"measurement": "PRISMA enrichment of interactor (log2)", "setting": "MAZ, P56270", "value": "5.48 ± 1.2"}, {"measurement": "PRISMA enrichment of interactor (log2)", "setting": "MCAT, Q8IVS2", "value": 4.38}, {"measurement": "PRISMA enrichment of interactor (log2)", "setting": "MORF4L1, Q9UBU8", "value": 5.61}, {"measurement": "PRISMA enrichment of interactor (log2)", "setting": "MORF4L2, Q15014", "value": 7.97}, {"measurement": "PRISMA enrichment of interactor (log2)", "setting": "MPG, P29372", "value": 6.87}, {"measurement": "PRISMA enrichment of interactor (log2)", "setting": "MRRF, Q96E11", "value": 4.59}, {"measurement": "PRISMA enrichment of interactor (log2)", "setting": "NIFK, Q9BYG3", "value": 6.38}, {"measurement": "PRISMA enrichment of interactor (log2)", "setting": "NME4, O00746", "value": 5.33}, {"measurement": "PRISMA enrichment of interactor (log2)", "setting": "NTHL1, P78549", "value": 5}, {"measurement": "PRISMA enrichment of interactor (log2)", "setting": "NUSAP1, Q9BXS6", "value": 4.73}, {"measurement": "PRISMA enrichment of interactor (log2)", "setting": "PIN1, Q13526", "value": 4.81}, {"measurement": "PRISMA enrichment of interactor (log2)", "setting": "PIN4, Q9Y237", "value": 7.87}, {"measurement": "PRISMA enrichment of interactor (log2)", "setting": "PLK1, P53350", "value": 7.34}, {"measurement": "PRISMA enrichment of interactor (log2)", "setting": "PPIL2, Q13356", "value": 5.5}, {"measurement": "PRISMA enrichment of interactor (log2)", "setting": "PSRC1, Q6PGN9", "value": 5.76}, {"measurement": "PRISMA enrichment of interactor (log2)", "setting": "RBIS, Q8N0T1", "value": 4.55}, {"measurement": "PRISMA enrichment of interactor (log2)", "setting": "RPS19BP1, Q86WX3", "value": 5.49}, {"measurement": "PRISMA enrichment of interactor (log2)", "setting": "RPUSD3, Q6P087", "value": 6.61}, {"measurement": "PRISMA enrichment of interactor (log2)", "setting": "TAX1BP3, O14907", "value": 4.09}, {"measurement": "PRISMA enrichment of interactor (log2)", "setting": "THYN1, Q9P016", "value": 5.8}, {"measurement": "PRISMA enrichment of interactor (log2)", "setting": "TMA16, Q96EY4", "value": 5.07}, {"measurement": "PRISMA enrichment of interactor (log2)", "setting": "TMA7, Q9Y2S6", "value": 5.09}, {"measurement": "PRISMA enrichment of interactor (log2)", "setting": "TOMM34, Q15785", "value": 7.09}, {"measurement": "PRISMA enrichment of interactor (log2)", "setting": "TRAF2, Q12933", "value": 12.2}, {"measurement": "PRISMA enrichment of interactor (log2)", "setting": "UTP11, Q9Y3A2", "value": 5.02}, {"measurement": "PRISMA enrichment of interactor (log2)", "setting": "UTP15, Q8TED0", "value": 4.6}, {"measurement": "PRISMA enrichment of interactor (log2)", "setting": "VRK1, Q99986", "value": 4.1}, {"measurement": "PRISMA enrichment of interactor (log2)", "setting": "ZNF146, Q15072", "value": 4.12}, {"measurement": "PRISMA enrichment of interactor (log2)", "setting": "ZNF22, P17026", "value": 5.14}, {"measurement": "PRISMA enrichment of interactor (log2)", "setting": "ZNF512, Q96ME7", "value": 4.96}, {"measurement": "PRISMA enrichment of interactor (log2)", "setting": "ZNF768, Q9H5H4", "value": 6.08}]}]}
